Test results as given in PubChem BioAssay AID504467 (National Center for Advancing Translational Sciences (NCATS), 2011).
Out of some 330,000 compounds screened, about 7,700 (2.3%) were called active. The shares of active, inactive and inconclusive entries below differ from those in the screen. Calls follow the shape of the dose curve; as a rule, active = well fitted inhibition curve with a large enough effect; inconclusive = small, poorly fitted or top-dose-only effect, or effect the other way; inactive = flat fitted curve, though single readings scatter. Where the call is inconclusive, the potency comes from a doubtful curve fit.

Test: qHTS screen for small molecules that inhibit ELG1-dependent DNA repair in human embryonic kidney (HEK293T) cells expressing luciferase-tagged ELG1; also: nearly all actives have a fitted effect of over 55% in size
Conditions: HEK293T ELG1-luciferase reporter, luminescence, 16 h, DNA damage induced by 5-fluorouridine; series mostly up to 46.1 µM
How it was run: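 In this reporter screen, reduction of luminescence relative to DMSO vehicle indicated activity. Compounds and 5-fluorouridine were added together to 2,000 cells per well, incubated for 16 hr at 37 °C, then developed with ONE-Glo.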
Potency is read from the fitted curve at half-maximal effect.

SMILES | Potency
C/C(CC(=O)Nc1ccc2c(c1)OCCO2)=N\NC(=O)COc1ccc(Cl)c(C)c1 | inactive
CCNc1nc(OCCNS(=O)(=O)c2cc(C)ccc2C)nc(N(C)C)n1 | inactive
Cc1cccc(N2CCN(C(=O)C3CCN(S(=O)(=O)c4c(C)noc4C)CC3)CC2)c1C | active: 13 µM
Cc1ccc(C2C3CN(C(C)C)CC=C3C(C#N)=C(N)C2(C#N)C#N)cc1 (stereo not drawn) | inactive
CS(=O)(=O)N1CCC(C(=O)Nc2cccc([N+](=O)[O-])c2)CC1 | inactive
COc1ccc(-c2nc3c(-c4ccc(Cl)cc4)cnn3cc2C)cc1F | inconclusive: 25.9 µM [activator, partial curve, poor fit]
CCN(CC)c1ccc(NC(=O)Nc2ccccc2C(F)(F)F)cc1 | inconclusive: 2.91 µM [activator, partial curve]
O=c1[nH]c(COc2ccccc2)nc2ccccc12 | inconclusive: 16.4 µM [activator, partial curve]
Cc1ccc2c(CN3CCC(C)CC3)cc(=O)oc2c1 | inconclusive: 4.11 µM [activator, partial curve]
COC(=O)N/N=C\C=C\c1ccc2c(c1)OCO2 | inactive
CN(CC(=O)Nc1ccccc1Cl)C(=O)c1ccc(-c2cccc(C(F)(F)F)c2)o1 | inactive
COCc1cc(CN(C)C(=O)c2oc3c(F)cccc3c2C)[nH]n1 | inactive
O=C(c1ccccc1)c1ccc(COC(=O)c2cnccn2)cc1 | inactive
Cc1ccccc1N(CC(=O)N/N=C/c1ccccc1Cl)C(=O)c1ccccc1 | inconclusive: 29.1 µM [activator, single point]
Cc1nc(NC(=O)c2ccccc2)sc1-c1csc(Nc2ccc(Cl)cc2)n1 | inconclusive: 13 µM [inhibitor, partial curve]
COc1cccc(/C=N/n2c(SC)nnc2-c2ccccc2)c1OC | inconclusive: 35.5 µM [inhibitor, single point]
Cc1ccc(-c2noc(C3CCCN(C(=O)c4cccc([N+](=O)[O-])c4)C3)n2)o1 (stereo not drawn) | inconclusive: 13 µM [activator, partial curve]
CCOc1ccc(OCC)c(NC(=O)C2CCCN(S(=O)(=O)c3c(C)n[nH]c3C)C2)c1 (stereo not drawn) | inconclusive: 29.1 µM [inhibitor, partial curve, poor fit]
CC(C)c1ccc(-n2cccc2/C=C2/C(=N)N3C=CSC3=NC2=O)cc1 | active: 16.4 µM
CCOC(=O)c1cccc(NC(=O)C2CCCN(S(=O)(=O)c3c(C)nn(C)c3C)C2)c1 (stereo not drawn) | inconclusive: 23.1 µM [inhibitor, single point]
CC(C)C(NC(=O)c1ccc(F)cc1)C(=O)N1CCN(c2ccccn2)CC1 (stereo not drawn) | inconclusive: 4.61 µM [inhibitor, single point]
COc1cc(Cl)ccc1OCc1cc(C(=O)NCC(C)(C)N2CCOCC2)no1 | inconclusive: 5.17 µM [activator, single point]
CC(C)(C)OC(=O)NCc1ccc(CNC(=O)c2[nH]cnc2C(=O)NC2CCN(C(=O)OC(C)(C)C)CC2)cc1 | inconclusive: 9.2 µM [inhibitor, partial curve, poor fit]

SMILES | Potency
O=C(Nc1ccc(F)cc1)NC1CCN(Cc2ccccc2)CC1 | inactive
CCCCN1C(=N)N([C@@H](C)CN2CCC[C@H]2CN2C(N)=NC[C@H]2CC(C)C)C[C@H]1Cc1ccccc1 | inconclusive: 18.3 µM [activator, partial curve, poor fit]
CCOc1ccc(/C=N/n2c(C)nnc2C)cc1OC | inconclusive: 18.3 µM [activator, partial curve]
COc1cccc(N(CC(=O)NC2CCCCC2)C(=O)Cn2nnc(-c3ccc(C)o3)n2)c1 | inactive
CSCCC(NC(=O)c1ccco1)C(=O)NC1CCCCCC1 (stereo not drawn) | inconclusive: 23.1 µM [activator, single point]
Clc1ccc2nc(CSCc3ccccc3)cn2c1 | inconclusive: 14.6 µM [activator, partial curve]
Cc1nnc(N/N=C/c2ccc(-c3ccccc3F)o2)n1N | inconclusive: 20.6 µM [activator, partial curve]
O=S1(=O)N=C(N(CCO)/N=C/c2ccc(Cl)cc2)c2ccccc21 | inconclusive: 29.1 µM [inhibitor, single point]
Cc1csc2ncnc(N3CCN(S(=O)(=O)c4cccc(C(F)(F)F)c4)CC3)c12 | inconclusive: 9.2 µM [inhibitor, partial curve, poor fit]
Cc1ccc(F)cc1NC(=O)N1CCN(c2ccnc3cc(Cl)ccc23)CC1 | inconclusive: 18.3 µM [inhibitor, single point]
COc1ccccc1N(C)S(=O)(=O)c1ccc(C(=O)Nc2nc(C)cs2)cc1 | active: 13 µM
CC(=O)c1cccc(NC(=O)N2CCC(NC(=O)C3CCCCC3)CC2)c1 | inactive
O=C(O)c1ccccc1N=Cc1c(O)n(-c2nccs2)c(=O)c2ccccc12 | inconclusive: 25.9 µM [inhibitor, single point]
CCCCCOc1ccc(CSc2ncn[nH]2)cc1 | inconclusive: 14.6 µM [activator, partial curve]
Cc1ccc(NC(=S)/N=C(\N)Nc2nc(C)c3ccccc3n2)cc1C | inconclusive: 16.4 µM [inhibitor, partial curve, poor fit]
CN(C(=O)COC(=O)c1ccccc1OCc1ccc(Cl)cc1)c1c(N)n(Cc2ccccc2)c(=O)[nH]c1=O | inconclusive: 13 µM [inhibitor, partial curve, poor fit]
O=C(/C=C/c1ccc(F)cc1)N1CCN(S(=O)(=O)/C=C/c2ccccc2)CC1 | inactive
O=C(NC(=S)Nc1ccccc1C(=O)O)c1ccc(-c2ccc(Br)cc2)o1 | inconclusive: 20.6 µM [activator, partial curve]
Cc1ccc(C(=O)Nc2ccc3ccccc3n2)cc1 | inconclusive: 1.83 µM [activator, partial curve]
COc1cc(CCCN2C(=S)NC[C@H]2Cc2ccc(O)cc2)cc(OC)c1OC | inconclusive: 23.1 µM [inhibitor, single point]
O=C(CCC(=O)c1cccs1)OCc1ccc([N+](=O)[O-])cc1 | inactive
COc1ccc2sc(-c3ccc(S(C)(=O)=O)cc3)c(C(=O)NCCc3c[nH]c4ccccc34)c2c1 | active: 18.3 µM
Cc1cnn(-c2cc(N/N=C/c3ccccc3F)ncn2)c1 | inconclusive: 9.2 µM [activator, partial curve, poor fit]

SMILES | Potency
COCC(C)n1c(C)cc(C(=O)CSc2nnc(Nc3ccccc3F)s2)c1C (stereo not drawn) | inconclusive: 29.1 µM [inhibitor, single point]
Cc1ccc2c(c1)[C@@H]1CN(C)CC[C@@H]1N2S(=O)(=O)c1ccc(F)cc1 | inactive
CCOC(=O)c1c(N2C(=O)C=CC2=O)sc(C)c1C | inconclusive: 23.1 µM [inhibitor, single point]
N/C(=N\OC(=O)C1CCCCC1)c1cccc([N+](=O)[O-])c1 | inconclusive: 29.1 µM [activator, single point]
CC(=O)Nc1ccc(S(=O)(=O)NCCC(=O)OC(C)C(=O)NC2(C#N)CCCCC2)cc1 (stereo not drawn) | inconclusive: 32.6 µM [activator, partial curve, poor fit]
O=C1C(C2=NC(c3ccccn3)C3C(=O)N(c4ccc(Cl)cc4Cl)C(=O)C23)=C(O)c2ccccc21 (stereo not drawn) | inconclusive: 18.3 µM [inhibitor, single point]
COc1ccc(N2CCN(c3nc(-c4cccs4)nc4ccccc34)CC2)cc1 | inconclusive: 20.6 µM [inhibitor, single point]
CCOC(=O)c1cc(C)[nH]c1C | inconclusive: 29.1 µM [activator, single point]
O=C(OCc1cc(=O)n2cc(Br)ccc2n1)c1ccc(Cl)c(S(=O)(=O)NCc2ccccc2)c1 | inconclusive: 29.1 µM [inhibitor, single point]
Cn1nnnc1SCC(=O)N1CCN(Cc2ccccc2)CC1 | inconclusive: 14.6 µM [activator, partial curve, poor fit]
CCOC(=O)c1c(C)[nH]c(C(=O)COC(=O)C2(C)CC2(Cl)Cl)c1C (stereo not drawn) | inactive
COc1ccc(COc2cccc(C=O)c2)cc1 | inconclusive: 0.316 µM [activator, partial curve, poor fit]
COC(=O)CCCN1C(=O)c2cccc3cccc(c23)C1=O | inactive
O=c1oc(-c2ccccc2)nc2c1C1(CCCCC1)Cc1ccccc1-2 | inactive
O=C(Nc1ccc2c(c1)OCCO2)C1CCC1 | inconclusive: 13 µM [activator, single point]
Cc1ccccc1OC(=O)c1cccc(S(=O)(=O)N2CCN(C)CC2)c1 | inactive
c1ccc(N2CCOCCOCCOCCOCCOCC2)cc1 | inactive
COc1cc(C(=O)Nc2nnc(-c3sccc3C)s2)cc(OC)c1OC | inconclusive: 29.1 µM [inhibitor, single point]
CCOC(=O)CN=C1CC(C)(C)CC2=C1Sc1ncnc(N(C)C)c1N2 | inconclusive: 32.6 µM [inhibitor, single point]
N#Cc1c(/N=C/c2ccco2)sc2c1CCCCC2 | inconclusive: 11.6 µM [activator, partial curve]
COC(=O)c1c(-c2ccncc2)csc1NC(=O)c1ccoc1C | inconclusive: 29.1 µM [activator, single point]
CCCC(=O)c1ccc2c(c1)OCCO2 | inconclusive: 20.6 µM [activator, single point]

Given tab-delimited: 17 of the compounds above
SMILES	Potency
C/C(CC(=O)Nc1ccc2c(c1)OCCO2)=N\NC(=O)COc1ccc(Cl)c(C)c1	inactive
CCNc1nc(OCCNS(=O)(=O)c2cc(C)ccc2C)nc(N(C)C)n1	inactive
Cc1cccc(N2CCN(C(=O)C3CCN(S(=O)(=O)c4c(C)noc4C)CC3)CC2)c1C	active: 13 µM
Cc1ccc(C2C3CN(C(C)C)CC=C3C(C#N)=C(N)C2(C#N)C#N)cc1 (stereo not drawn)	inactive
CS(=O)(=O)N1CCC(C(=O)Nc2cccc([N+](=O)[O-])c2)CC1	inactive
COc1ccc(-c2nc3c(-c4ccc(Cl)cc4)cnn3cc2C)cc1F	inconclusive: 25.9 µM [activator, partial curve, poor fit]
CCN(CC)c1ccc(NC(=O)Nc2ccccc2C(F)(F)F)cc1	inconclusive: 2.91 µM [activator, partial curve]
O=c1[nH]c(COc2ccccc2)nc2ccccc12	inconclusive: 16.4 µM [activator, partial curve]
Cc1ccc2c(CN3CCC(C)CC3)cc(=O)oc2c1	inconclusive: 4.11 µM [activator, partial curve]
COC(=O)N/N=C\C=C\c1ccc2c(c1)OCO2	inactive
CN(CC(=O)Nc1ccccc1Cl)C(=O)c1ccc(-c2cccc(C(F)(F)F)c2)o1	inactive
COCc1cc(CN(C)C(=O)c2oc3c(F)cccc3c2C)[nH]n1	inactive
O=C(c1ccccc1)c1ccc(COC(=O)c2cnccn2)cc1	inactive
Cc1ccccc1N(CC(=O)N/N=C/c1ccccc1Cl)C(=O)c1ccccc1	inconclusive: 29.1 µM [activator, single point]
Cc1nc(NC(=O)c2ccccc2)sc1-c1csc(Nc2ccc(Cl)cc2)n1	inconclusive: 13 µM [inhibitor, partial curve]
COc1cccc(/C=N/n2c(SC)nnc2-c2ccccc2)c1OC	inconclusive: 35.5 µM [inhibitor, single point]
Cc1ccc(-c2noc(C3CCCN(C(=O)c4cccc([N+](=O)[O-])c4)C3)n2)o1 (stereo not drawn)	inconclusive: 13 µM [activator, partial curve]

Among those listed so far, 2 contain bromine.
SMILES | Potency
O=C(NC(=S)Nc1ccccc1C(=O)O)c1ccc(-c2ccc(Br)cc2)o1 | inconclusive: 20.6 µM [activator, partial curve]
O=C(OCc1cc(=O)n2cc(Br)ccc2n1)c1ccc(Cl)c(S(=O)(=O)NCc2ccccc2)c1 | inconclusive: 29.1 µM [inhibitor, single point]
